This is one part of the list. Small differences around the control level are noise.

Protein sequences, listed by entry. Tags and fused reporters are not part of them. Lines headed by an entry give the natural chain unless they say otherwise; changes in a name come on top.
UniProt Q4KMM3: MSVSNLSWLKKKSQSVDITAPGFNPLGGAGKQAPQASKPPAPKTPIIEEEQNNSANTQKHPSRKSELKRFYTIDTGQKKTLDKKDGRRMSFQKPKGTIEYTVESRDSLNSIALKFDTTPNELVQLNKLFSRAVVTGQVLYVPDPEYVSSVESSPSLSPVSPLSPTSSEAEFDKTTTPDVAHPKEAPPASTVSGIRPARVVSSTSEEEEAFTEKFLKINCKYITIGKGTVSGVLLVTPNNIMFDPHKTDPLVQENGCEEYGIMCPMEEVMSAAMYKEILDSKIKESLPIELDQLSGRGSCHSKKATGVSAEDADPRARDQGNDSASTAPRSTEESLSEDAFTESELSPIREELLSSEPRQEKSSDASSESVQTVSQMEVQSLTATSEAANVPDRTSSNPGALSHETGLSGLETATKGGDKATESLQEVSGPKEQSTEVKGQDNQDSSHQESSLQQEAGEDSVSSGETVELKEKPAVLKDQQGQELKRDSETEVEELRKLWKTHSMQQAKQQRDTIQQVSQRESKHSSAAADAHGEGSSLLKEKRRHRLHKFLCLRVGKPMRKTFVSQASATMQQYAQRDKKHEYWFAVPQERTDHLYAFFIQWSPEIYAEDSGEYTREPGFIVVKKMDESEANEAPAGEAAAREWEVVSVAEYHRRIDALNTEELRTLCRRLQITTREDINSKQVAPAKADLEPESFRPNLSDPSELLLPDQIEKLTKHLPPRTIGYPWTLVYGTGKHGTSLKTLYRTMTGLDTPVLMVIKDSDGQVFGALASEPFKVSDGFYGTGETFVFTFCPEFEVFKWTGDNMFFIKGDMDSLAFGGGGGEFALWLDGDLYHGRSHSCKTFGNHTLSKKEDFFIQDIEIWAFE
UniProt Q3V3R1, whole entry: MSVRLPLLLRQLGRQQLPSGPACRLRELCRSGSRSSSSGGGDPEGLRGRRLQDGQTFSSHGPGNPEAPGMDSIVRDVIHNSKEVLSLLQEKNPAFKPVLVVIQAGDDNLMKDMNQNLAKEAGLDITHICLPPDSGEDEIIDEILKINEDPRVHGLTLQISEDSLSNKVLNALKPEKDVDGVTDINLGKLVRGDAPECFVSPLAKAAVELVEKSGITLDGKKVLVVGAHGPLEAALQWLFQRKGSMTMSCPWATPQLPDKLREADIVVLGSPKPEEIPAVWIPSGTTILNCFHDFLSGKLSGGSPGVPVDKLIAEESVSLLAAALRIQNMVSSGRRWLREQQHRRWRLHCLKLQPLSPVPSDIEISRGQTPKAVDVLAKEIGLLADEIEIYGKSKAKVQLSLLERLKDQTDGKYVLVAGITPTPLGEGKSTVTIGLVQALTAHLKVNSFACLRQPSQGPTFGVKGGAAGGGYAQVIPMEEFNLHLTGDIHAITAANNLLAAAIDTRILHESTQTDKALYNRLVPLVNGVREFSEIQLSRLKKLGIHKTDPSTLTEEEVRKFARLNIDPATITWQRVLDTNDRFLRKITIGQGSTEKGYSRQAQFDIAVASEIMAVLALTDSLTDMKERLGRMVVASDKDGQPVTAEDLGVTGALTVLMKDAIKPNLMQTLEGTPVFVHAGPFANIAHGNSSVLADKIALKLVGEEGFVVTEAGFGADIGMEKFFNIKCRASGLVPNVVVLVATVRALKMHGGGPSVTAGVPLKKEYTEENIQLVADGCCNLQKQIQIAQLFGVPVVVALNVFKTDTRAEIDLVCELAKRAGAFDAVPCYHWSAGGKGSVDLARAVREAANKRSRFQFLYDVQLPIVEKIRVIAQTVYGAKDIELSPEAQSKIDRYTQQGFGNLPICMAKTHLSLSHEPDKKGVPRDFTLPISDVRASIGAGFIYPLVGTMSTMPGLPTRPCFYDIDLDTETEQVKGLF
UniProt Q3U5C8: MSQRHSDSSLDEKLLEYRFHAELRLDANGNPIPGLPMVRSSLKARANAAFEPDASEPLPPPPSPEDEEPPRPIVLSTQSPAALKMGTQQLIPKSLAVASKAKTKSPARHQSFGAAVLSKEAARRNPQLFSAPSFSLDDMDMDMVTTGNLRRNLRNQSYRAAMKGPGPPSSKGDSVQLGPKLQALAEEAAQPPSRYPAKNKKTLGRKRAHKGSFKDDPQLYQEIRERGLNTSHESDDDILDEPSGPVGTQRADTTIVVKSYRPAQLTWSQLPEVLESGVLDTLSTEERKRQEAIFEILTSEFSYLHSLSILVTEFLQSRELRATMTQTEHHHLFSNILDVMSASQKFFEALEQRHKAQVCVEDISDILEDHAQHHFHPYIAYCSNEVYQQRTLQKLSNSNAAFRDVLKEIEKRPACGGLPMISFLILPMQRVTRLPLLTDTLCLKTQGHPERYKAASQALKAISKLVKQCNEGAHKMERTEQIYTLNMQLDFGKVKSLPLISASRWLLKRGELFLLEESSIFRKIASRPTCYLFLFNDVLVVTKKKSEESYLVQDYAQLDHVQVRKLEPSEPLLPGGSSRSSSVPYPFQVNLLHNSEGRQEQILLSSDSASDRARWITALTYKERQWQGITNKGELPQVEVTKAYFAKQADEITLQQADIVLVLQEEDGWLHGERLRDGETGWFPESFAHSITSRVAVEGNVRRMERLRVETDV
UniProt Q5BU09: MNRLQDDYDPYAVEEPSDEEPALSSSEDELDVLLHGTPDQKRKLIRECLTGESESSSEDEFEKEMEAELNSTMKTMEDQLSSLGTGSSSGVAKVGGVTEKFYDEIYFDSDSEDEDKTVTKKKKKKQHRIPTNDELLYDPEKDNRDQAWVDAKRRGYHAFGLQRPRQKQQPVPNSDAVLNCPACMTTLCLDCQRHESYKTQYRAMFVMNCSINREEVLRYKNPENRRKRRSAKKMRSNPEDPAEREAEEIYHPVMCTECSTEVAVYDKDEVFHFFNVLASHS
UniProt Q3UKC1, whole entry: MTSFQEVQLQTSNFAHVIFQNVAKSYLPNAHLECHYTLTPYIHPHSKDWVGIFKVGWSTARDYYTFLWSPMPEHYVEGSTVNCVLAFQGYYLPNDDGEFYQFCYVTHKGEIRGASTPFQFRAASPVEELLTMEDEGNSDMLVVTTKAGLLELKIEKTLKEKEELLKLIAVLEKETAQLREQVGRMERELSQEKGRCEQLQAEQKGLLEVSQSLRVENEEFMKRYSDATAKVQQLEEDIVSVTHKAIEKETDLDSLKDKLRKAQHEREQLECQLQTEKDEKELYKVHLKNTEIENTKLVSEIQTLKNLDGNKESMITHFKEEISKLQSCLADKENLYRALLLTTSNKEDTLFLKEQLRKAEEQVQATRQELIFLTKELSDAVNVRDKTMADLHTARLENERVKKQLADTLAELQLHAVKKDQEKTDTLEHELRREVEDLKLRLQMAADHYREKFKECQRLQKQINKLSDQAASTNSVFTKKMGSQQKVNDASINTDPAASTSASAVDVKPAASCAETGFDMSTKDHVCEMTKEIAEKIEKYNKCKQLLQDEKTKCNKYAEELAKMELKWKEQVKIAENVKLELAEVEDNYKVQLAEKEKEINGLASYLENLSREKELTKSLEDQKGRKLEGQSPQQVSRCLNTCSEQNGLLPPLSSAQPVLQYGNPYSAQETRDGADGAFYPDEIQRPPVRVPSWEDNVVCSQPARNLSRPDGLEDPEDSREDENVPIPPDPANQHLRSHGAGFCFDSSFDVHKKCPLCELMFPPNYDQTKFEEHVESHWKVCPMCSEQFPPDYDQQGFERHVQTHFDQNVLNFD
UniProt Q3UDR8: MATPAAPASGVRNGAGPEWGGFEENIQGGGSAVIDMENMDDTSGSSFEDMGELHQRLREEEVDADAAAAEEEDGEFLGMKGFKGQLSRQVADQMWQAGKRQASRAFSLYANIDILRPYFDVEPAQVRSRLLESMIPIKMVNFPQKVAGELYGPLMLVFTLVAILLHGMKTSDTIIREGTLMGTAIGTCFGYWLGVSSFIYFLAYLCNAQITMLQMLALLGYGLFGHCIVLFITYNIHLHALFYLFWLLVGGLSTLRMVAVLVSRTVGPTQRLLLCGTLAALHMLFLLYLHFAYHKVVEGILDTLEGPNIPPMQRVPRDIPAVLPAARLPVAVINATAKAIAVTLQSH

Compound in the assay: CN[C@@H]1C[C@H]2O[C@@](C)([C@@H]1OC)n1c3ccccc3c3c4c(c5c6ccccc6n2c5c31)C(=O)NC4 [staurosporine]
As to the kind of experiment: log2 fold change of tryptic peptide abundance, ligand vs vehicle (limited proteolysis) (log2 ratio); higher = more trypsin-susceptible (destabilized). As to conditions: ligand concentration: 20 uM; sample: mouse liver crude lysate; replicate design: treated separately.
For the target “UniProt Q4KMM3 (peptide sequence: DSLNSIALK, peptide start residue: 106)”, the log2 fold change amounted to 0.18. For “UniProt Q3V3R1 (peptide sequence: KITIGQGSTEK, peptide start residue: 585)” the value was -0.352; for “UniProt Q3U5C8 (peptide sequence: SLAVASK, peptide start residue: 94)”, 0.689; for “UniProt Q5BU09 (peptide sequence: DQAWVDAK, peptide start residue: 145)”, 0.2. In the case of “UniProt Q3UKC1 (peptide sequence: QLADTLAELQLHAVKK, peptide start residue: 404)”, the log2 fold change was found to be 0.212. For the target “UniProt Q3UDR8 (peptide sequence: QVADQMWQAGKR, peptide start residue: 89)”, the log2 fold change was -0.0549.
